For the assay, the target named is potassium voltage-gated channel subfamily Q member 4 (KCNQ4), wild type (human) (UniProt P56696). The experiment in a line: co-IP; WT or mutant Myc-KCNQ4 cotransfected with WT FLAG-KCNQ4 in HEK293T; 24 h post-transfection whole-cell lysates immunoprecipitated with anti-Myc or anti-FLAG affinity gel and immunoblotted.

Protein sequences, listed by entry. Tags and fused reporters are not part of them. Lines headed by an entry give the natural chain unless they say otherwise; changes in a name come on top. Chains listed by the source or under a name are the forms on record and can include a tag or linker.
UniProt P56696: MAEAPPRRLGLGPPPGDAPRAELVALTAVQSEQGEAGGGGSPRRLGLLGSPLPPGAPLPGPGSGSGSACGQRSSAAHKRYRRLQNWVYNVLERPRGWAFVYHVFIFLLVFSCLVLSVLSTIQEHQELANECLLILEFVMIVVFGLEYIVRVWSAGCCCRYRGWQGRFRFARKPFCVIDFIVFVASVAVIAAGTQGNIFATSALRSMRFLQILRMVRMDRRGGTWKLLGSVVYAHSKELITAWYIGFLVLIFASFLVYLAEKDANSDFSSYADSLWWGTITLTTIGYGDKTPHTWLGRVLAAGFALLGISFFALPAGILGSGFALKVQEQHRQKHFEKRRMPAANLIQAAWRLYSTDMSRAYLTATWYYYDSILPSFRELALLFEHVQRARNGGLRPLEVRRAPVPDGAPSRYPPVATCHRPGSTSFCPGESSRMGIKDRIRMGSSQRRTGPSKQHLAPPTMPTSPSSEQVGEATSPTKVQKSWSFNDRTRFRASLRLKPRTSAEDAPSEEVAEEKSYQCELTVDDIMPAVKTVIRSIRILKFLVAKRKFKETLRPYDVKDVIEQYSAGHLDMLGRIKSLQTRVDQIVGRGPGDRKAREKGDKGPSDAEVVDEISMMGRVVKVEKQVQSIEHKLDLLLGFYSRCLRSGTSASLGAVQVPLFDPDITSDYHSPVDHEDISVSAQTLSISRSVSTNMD
KCNQ4 p.Val87_Asn89del (P56696-1, form named): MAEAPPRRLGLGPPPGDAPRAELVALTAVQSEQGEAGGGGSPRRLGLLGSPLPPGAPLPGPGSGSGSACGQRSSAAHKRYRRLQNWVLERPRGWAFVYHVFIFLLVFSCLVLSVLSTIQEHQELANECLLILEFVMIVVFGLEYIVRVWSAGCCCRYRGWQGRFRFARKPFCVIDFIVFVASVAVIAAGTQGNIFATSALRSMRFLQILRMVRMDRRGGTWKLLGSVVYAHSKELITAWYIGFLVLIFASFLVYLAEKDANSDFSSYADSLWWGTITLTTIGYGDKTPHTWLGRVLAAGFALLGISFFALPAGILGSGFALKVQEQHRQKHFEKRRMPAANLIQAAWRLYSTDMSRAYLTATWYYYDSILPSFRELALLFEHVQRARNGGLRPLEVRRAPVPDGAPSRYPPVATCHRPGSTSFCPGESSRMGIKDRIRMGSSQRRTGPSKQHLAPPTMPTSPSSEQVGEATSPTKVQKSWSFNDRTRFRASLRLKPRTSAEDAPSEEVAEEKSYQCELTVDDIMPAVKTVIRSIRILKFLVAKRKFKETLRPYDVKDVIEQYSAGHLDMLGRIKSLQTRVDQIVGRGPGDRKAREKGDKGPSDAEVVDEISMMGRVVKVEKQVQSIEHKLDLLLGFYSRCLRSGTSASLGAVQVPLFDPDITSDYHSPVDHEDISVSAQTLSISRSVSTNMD
KCNQ4 p.Asp266Tyr (P56696-1, form named): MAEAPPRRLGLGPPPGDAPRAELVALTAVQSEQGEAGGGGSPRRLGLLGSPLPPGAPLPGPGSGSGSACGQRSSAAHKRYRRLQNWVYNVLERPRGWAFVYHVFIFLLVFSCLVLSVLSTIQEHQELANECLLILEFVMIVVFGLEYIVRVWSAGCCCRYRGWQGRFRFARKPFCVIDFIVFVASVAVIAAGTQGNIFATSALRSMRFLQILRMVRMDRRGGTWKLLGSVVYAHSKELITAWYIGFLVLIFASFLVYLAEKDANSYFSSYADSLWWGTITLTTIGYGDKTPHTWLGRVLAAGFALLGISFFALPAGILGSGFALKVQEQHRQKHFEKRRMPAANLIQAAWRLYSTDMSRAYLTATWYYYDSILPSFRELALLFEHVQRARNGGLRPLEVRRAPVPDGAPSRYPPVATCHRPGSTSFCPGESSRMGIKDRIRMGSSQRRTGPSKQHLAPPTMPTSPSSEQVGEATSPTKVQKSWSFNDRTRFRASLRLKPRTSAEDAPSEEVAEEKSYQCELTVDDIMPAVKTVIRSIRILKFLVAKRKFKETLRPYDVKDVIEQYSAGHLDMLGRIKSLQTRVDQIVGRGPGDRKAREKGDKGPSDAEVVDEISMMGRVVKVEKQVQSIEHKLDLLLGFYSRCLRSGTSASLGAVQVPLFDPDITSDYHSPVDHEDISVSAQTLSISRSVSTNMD

This passage reports binding results from publication PMC6226507.

Results are given in words; binding and its absence hold for the method and conditions named. In cells and extracts the contact can be indirect. Some results given as binding are weak or reduced against the parent protein; the word gives no strength.

Consider “KCNQ4 p.Val87_Asn89del (from UniProt P56696-1 1-695)”, for which the binding entry was “binds”.

In the case of “potassium voltage-gated channel subfamily Q member 4 (KCNQ4), wild type (from UniProt P56696-1 1-695)”, the binding result was “binds”.

For “KCNQ4 p.Asp266Tyr (from UniProt P56696-1 1-695)”, the binding result is on record as “binds”.
